## Library screen at single concentrations

Values are the deposited “Percent Effect”, in %.
The record does not define 0% and 100%; most values in the screen are far below 50% and negative numbers occur (in some assays of this library far below -100).
Compounds were drawn at random from those tested, without regard to their results.

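Assay of Toxoplasma gondii numbers, read through their beta-galactosidase reporter with a colour substrate. Compounds at 50 µM. The record gives no direction; the compounds picked for IC50 retests had high values, so higher reads as fewer parasites. Size under these conditions: about 18,000 compounds, about 170 of them at 50% or above in at least one test.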

| # | SMILES | effect |
|---|---|---|
| 1 | `O=C1CCC(NS(=O)(=O)Cc2c(Cl)cccc2Cl)CN1` (centres undefined) | -12.27 |
| 2 | `Cc1cc(C)n(CC(C)CN)n1` (centres undefined) | -8.444 |
| 3 | `NCc1ccccc1CN1CCCC1CO` (centres undefined) | 6.985 |
| 4 | `NS(=O)(=O)c1ccc2c(c1)CCCC2=O` | 5.288 |
| 5 | `Cc1noc(C)c1CN1CCOCC1(C)CO` (centres undefined) | 7.67 |
| 6 | `CC(C)(C)Oc1ccc(NC(=O)N2CC[C@H](O)C2)cc1` | 6.126 |
| 7 | `CNC(=O)CC(N)c1ccccc1` (centres undefined) | 11.31 |
| 8 | `CC(C)N1CCC(NC(=O)c2c(Br)cnn2C)CC1` | -28.2 |
| 9 | `CCS(=O)(=O)N1CC(F)(F)C[C@H]1c1nc(C)no1` | -1.801 |
| 10 | `Cc1nc(CN2CCN(c3ncccc3F)CC2)n[nH]1` | 0.5301 |
| 11 | `Cn1cc(NC(=O)NCC2(O)CCCCC2)cn1` | 16.99 |
| 12 | `NCCCc1nc(-c2ccncc2)no1` | -2.204 |
| 13 | `CC(C)(C)OC(=O)N1CCN(c2cc(N)ncn2)CC1` | -4.815 |
| 14 | `CNC(=O)NC(=O)CN(C)CCOc1cccc(F)c1` | -18.04 |
| 15 | `CCOC(=O)c1c(C)nn2c(C)c(C(C)=O)cnc12` | -3.354 |
| 16 | `COCCNC(=O)C(C)S(=O)(=O)Cc1cccc(Br)c1` (centres undefined) | -13.39 |
| 17 | `COc1cccc(CNCCCS(C)(=O)=O)c1OC` | 2.78 |
| 18 | `CCOc1ccccc1C(=O)Nc1nnc[nH]1` | -5.359 |
| 19 | `O=C(NCCc1c[nH]cn1)c1cn2cccnc2n1` | 15.27 |
| 20 | `CC(C)(C)OC(=O)N[C@H]1CS(=O)(=O)[C@@H]2CNC[C@H]12` | -8.214 |
| 21 | `CCC(CC)C(O)CNC(=O)Cn1cnnn1` (centres undefined) | 0.1309 |
| 22 | `O=C(c1ccccc1Cl)N1CCC(n2cnnc2)CC1` | -12.9 |
| 23 | `OC1(CNCc2ccccn2)CCc2ccccc21` (centres undefined) | -2.404 |
| 24 | `Oc1ncccc1F` | -26.22 |
| 25 | `CNC1CCN(C(=O)Cc2cc(F)ccc2F)C1` (centres undefined) | -5.38 |
| 26 | `CCN(CCC(=O)NC)CC(O)c1ccc(C)cc1` (centres undefined) | 25.52 |
| 27 | `COc1cccc(CNC(=O)NC(C)C)c1O` | 11.16 |
| 28 | `O=C1CCC2(CNC(=O)C3CC3)CCCC=C2N1` (centres undefined) | -9.034 |
| 29 | `COc1ccccc1S(=O)(=O)NC1CCN(C)CC1` | -32.44 |
| 30 | `O=C(Nc1c[nH]c(=O)[nH]c1=O)c1ccc(Br)o1` | 10.89 |
| 31 | `CC(C(N)=O)N1CCN(C(=O)c2ccc(Br)cc2)CC1` (centres undefined) | 3.88 |
| 32 | `COCC(=O)Nc1cccc(CNC(C)=O)c1` | 8.495 |
| 33 | `Cc1cncc(CNC(=O)N2CCSCCC2C)c1` (centres undefined) | 14.99 |
| 34 | `c1ccc(COC2CCNC2)nc1` (centres undefined) | -5.402 |
| 35 | `NC(=O)C1CCN(C(=O)NC2CCCCC2)CC1` | 7.804 |
| 36 | `COc1ccccc1CNc1nc(C)n[nH]1` | -5.498 |
| 37 | `CC(=O)NCC(=O)Nc1ccc2cccc(Cl)c2n1` | 2.144 |
| 38 | `c1cc(C2CCCN2)n[nH]1` (centres undefined) | 14.89 |
| 39 | `CN(C)C1CCN(CC(=O)NCCSc2cnn[nH]2)C1` (centres undefined) | 3.134 |
| 40 | `CC(C)CCC(=O)N1CCC(C)(CO)C1` (centres undefined) | 58.28 |
| 41 | `CC(=O)N1CCN(c2ccc(CO)cc2)CC1` | -19.01 |
| 42 | `CNC(=O)c1ccc(CN(C)CCC(C)O)cc1` (centres undefined) | 0.5943 |
| 43 | `CC1(C)CN(C(=O)c2cnc3ccccn23)CCS1` | 4.624 |
| 44 | `O=C(c1ccc[nH]1)N1CCC(Nc2cccnc2)CC1` | -19.5 |
| 45 | `Cc1c(NC(=O)c2c(N)cnn2C)cnn1C` | -33.69 |
| 46 | `NCC(O)c1ccc(-c2ccccc2)cc1` (centres undefined) | 100.3 |
| 47 | `O=C(Nc1cccnc1)c1ccc(F)c(F)c1` | 0.6543 |
| 48 | `O=C(c1cnc[nH]1)N1C[C@H](O)[C@@H](N2CCCCC2)C1` | -18.17 |
| 49 | `CN1CCN(CCNC(=O)c2ccc(Cl)cc2Cl)CC1` | -3.042 |
| 50 | `CCCNC(=O)CN(C)Cc1ccco1` | -2.57 |
| 51 | `CNC(=O)c1cccc(NC(C)C(=O)NCC(C)C)c1` (centres undefined) | -5.14 |
| 52 | `CC(N)Cc1ccco1` (centres undefined) | 2.223 |
| 53 | `Cc1noc(C)c1CNCc1c(C)nn(CCO)c1C` | -2.443 |
| 54 | `OCCN1CCN(Cc2nnnn2C2CC2)CC1` | -2.173 |
| 55 | `CN1CCC(N(C)C(=O)Cc2cccc(F)c2)CC1` | 2.935 |
| 56 | `O=C1N(CC2CC2)CCCC12CCNC2` (centres undefined) | 14.81 |
| 57 | `C[C@@H](CN(C)C)NC(=O)c1ccc(-n2ccnc2)cc1` | -0.5007 |
| 58 | `O=C(Nc1cccs1)NC1(CCO)CCC1` | 9.649 |
| 59 | `CCN(CC(=O)NC)S(=O)(=O)c1ncn(C)c1Cl` | -14.12 |
| 60 | `CCNC(=O)CCc1ccc(S(=O)(=O)NC2CC2)cc1` | -5.263 |
| 61 | `CC(C)n1nnnc1Cn1ccc2sccc2c1=O` | -7.256 |
| 62 | `C1CC(OCCN2CCOCC2)CCN1` | -1.594 |
| 63 | `Cn1cccc1C(=O)OCCCN1CCOCC1` | 48.55 |
| 64 | `CC1CS(=O)(=O)CCN1Cc1ccc(F)c(C#N)c1` (centres undefined) | -6.312 |
| 65 | `CCNC(=O)N1CCC(NC(=O)c2ccc(C)o2)CC1` | -1.852 |
| 66 | `CNC1CCN(C(=O)c2ccsc2)CC1` | 3.452 |
| 67 | `CCCn1ccc(NC(=O)NC(C)C)n1` | -36 |
| 68 | `Cc1cccc(NC(=O)CN(C)C2CCS(=O)(=O)C2)n1` (centres undefined) | 13.27 |
| 69 | `CCCc1nc(CN2C(=O)c3ccccc3C2=O)no1` | -11.87 |
| 70 | `CCC(NC(=O)c1ccc(=O)[nH]c1)c1nc(C)c[nH]1` (centres undefined) | 9.513 |
| 71 | `Cc1cc(NC(=O)COc2ccc3c(c2)OCO3)no1` | 15.18 |
| 72 | `N#Cc1cccc(NC(=O)NCCn2ccnc2)c1` | -21.41 |
| 73 | `CSC(C)C(=O)N(C)CC(=O)NC(C)C` (centres undefined) | 4.624 |
| 74 | `O=S(=O)(CCN1CCN(c2nccs2)CC1)C(F)(F)F` | 3.036 |
| 75 | `O=C(c1ccncc1F)N1CCC2(CCC2O)CC1` (centres undefined) | -13.06 |
| 76 | `CC(C)CN1CCOC(CNC(=O)c2cccs2)C1` (centres undefined) | 6.083 |
| 77 | `CCOc1ccccc1[C@@H](C)N` | -2.706 |
| 78 | `Cc1cc(C)nc(NC(=O)NCc2cnn(C)c2)c1` | 14.06 |
| 79 | `CN1CCCCC1CCC(=O)NCc1ccc(O)cc1` (centres undefined) | -14.23 |
| 80 | `CC(C)(C#N)C(=O)Nc1ncccc1Cl` | -1.975 |
| 81 | `O=C(NCCc1ccc(F)cc1F)NCC1(CO)CC1` | 15.37 |
| 82 | `CCOc1cccc(CS(=O)(=O)Cc2ccnn2C)n1` | 4.013 |
| 83 | `N#CCSCC(=O)NCc1ccc(Cl)s1` | 6.994 |
| 84 | `NC(Cc1ccccc1)C(=O)NC1CC1` (centres undefined) | -6.548 |
| 85 | `COc1ccc(C(=O)N(C)C2CCS(=O)(=O)C2)cc1F` (centres undefined) | -10.06 |
| 86 | `NCc1cccnc1O` | -9.533 |
| 87 | `Cc1cc(Br)oc1C(=O)N1CCCN(C)CC1` | 3.294 |
| 88 | `CC[C@H](N)C(=O)N(C)Cc1cccc(OC(F)(F)F)c1` | 4.147 |
| 89 | `CCN(C1CCOCC1)C1CN(C(=O)c2ccoc2)C1` | 0.4328 |
| 90 | `O=C(NCCO)c1nnsc1-c1ccc(Cl)cc1` | -1.39 |
| 91 | `COCCCNCc1ccc2c(c1)OCCO2` | 3.838 |
| 92 | `CCn1cnc2ccc(C(=O)NC3CC3)cc2c1=O` | 1.016 |
| 93 | `CN1CC2(CCN(Cc3nccn3C)CC2)OC1=O` | 1.728 |
| 94 | `CC(C)C1CCCCN1C(=O)CCS(C)(=O)=O` (centres undefined) | 5.421 |

Once more, the final 11:

SMILES	effect
NC(Cc1ccccc1)C(=O)NC1CC1 (centres undefined)	-6.548
COc1ccc(C(=O)N(C)C2CCS(=O)(=O)C2)cc1F (centres undefined)	-10.06
NCc1cccnc1O	-9.533
Cc1cc(Br)oc1C(=O)N1CCCN(C)CC1	3.294
CC[C@H](N)C(=O)N(C)Cc1cccc(OC(F)(F)F)c1	4.147
CCN(C1CCOCC1)C1CN(C(=O)c2ccoc2)C1	0.4328
O=C(NCCO)c1nnsc1-c1ccc(Cl)cc1	-1.39
COCCCNCc1ccc2c(c1)OCCO2	3.838
CCn1cnc2ccc(C(=O)NC3CC3)cc2c1=O	1.016
CN1CC2(CCN(Cc3nccn3C)CC2)OC1=O	1.728
CC(C)C1CCCCN1C(=O)CCS(C)(=O)=O (centres undefined)	5.421

Data taken from ChEMBL document CHEMBL3988442, “University of Dundee, Small-Polar-MMV Screening Library” (2021).